Results are given in words; binding and its absence hold for the method and conditions named. In cells and extracts the contact can be indirect. A yes stands for co-enrichment or nearness to the bait. Other partners may have been found. Where a sequence is shown, tags or fusion partners need not be part of it.
Target: T1, THEMIS tagged with One-STrEP-Tag (THEMIS-Strep), wild type (human) (UniProt Q8N1K5)
T1 sequence: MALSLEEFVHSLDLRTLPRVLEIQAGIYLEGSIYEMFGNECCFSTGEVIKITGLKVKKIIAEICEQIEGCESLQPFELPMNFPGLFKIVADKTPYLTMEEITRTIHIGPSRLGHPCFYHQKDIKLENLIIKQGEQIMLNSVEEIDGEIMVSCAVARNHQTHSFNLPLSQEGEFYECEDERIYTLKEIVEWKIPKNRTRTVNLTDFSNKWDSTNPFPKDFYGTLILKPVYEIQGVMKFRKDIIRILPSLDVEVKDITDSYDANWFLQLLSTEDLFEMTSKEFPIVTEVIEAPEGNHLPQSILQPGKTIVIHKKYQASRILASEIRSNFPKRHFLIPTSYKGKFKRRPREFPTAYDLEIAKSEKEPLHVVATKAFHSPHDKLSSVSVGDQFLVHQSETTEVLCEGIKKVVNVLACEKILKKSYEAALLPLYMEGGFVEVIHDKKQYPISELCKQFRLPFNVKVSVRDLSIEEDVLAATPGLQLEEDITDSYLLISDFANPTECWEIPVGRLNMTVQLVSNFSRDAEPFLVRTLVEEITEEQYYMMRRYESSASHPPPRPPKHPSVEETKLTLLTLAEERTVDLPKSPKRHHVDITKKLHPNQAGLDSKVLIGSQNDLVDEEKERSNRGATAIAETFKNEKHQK
Assay: affinity purification with mass spectrometry; THEMIS-Strep expressed in Jurkat cells, resting or anti-CD3 mAb-stimulated; pulled down with Streptactin-Sepharose beads, eluted with biotin, nanoLC-MS/MS; biotin-blocked beads as background

By UniProt entry, the sequences of proteins in these tests, tags left out.
UniProt P31146: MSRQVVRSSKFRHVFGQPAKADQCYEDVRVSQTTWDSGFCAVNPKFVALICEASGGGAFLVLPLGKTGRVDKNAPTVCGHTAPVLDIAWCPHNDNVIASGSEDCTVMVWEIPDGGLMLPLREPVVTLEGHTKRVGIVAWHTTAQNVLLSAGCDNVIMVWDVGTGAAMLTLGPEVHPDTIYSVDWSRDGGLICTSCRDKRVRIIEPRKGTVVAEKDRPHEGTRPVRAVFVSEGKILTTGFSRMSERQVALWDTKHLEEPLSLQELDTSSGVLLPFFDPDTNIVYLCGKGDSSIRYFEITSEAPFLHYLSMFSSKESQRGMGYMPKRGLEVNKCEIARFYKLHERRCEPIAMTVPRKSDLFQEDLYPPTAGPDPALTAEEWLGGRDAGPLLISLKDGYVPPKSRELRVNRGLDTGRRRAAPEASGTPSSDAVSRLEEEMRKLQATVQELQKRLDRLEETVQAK
UniProt Q9NPA3: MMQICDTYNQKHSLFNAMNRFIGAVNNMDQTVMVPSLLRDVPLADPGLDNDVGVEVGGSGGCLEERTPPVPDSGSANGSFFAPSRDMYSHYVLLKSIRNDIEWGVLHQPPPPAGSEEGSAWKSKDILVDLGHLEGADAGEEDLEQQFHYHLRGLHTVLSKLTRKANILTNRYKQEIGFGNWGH

binding	Substance
binds	COR1A_HUMAN (coronin-1A), endogenous (from UniProt P31146 1-461)
binds	M1IP1_HUMAN (Mid1-interacting protein 1), endogenous (from UniProt Q9NPA3 1-183)

Reference: paper PMC4339124
